Reference: PubChem BioAssay AID328 (DTP/NCI, 2004)
The list shows only some results of the screen, not a fair sample: it gathers tests that were run many times, whatever their T/C, doses with no T/C, and many T/C values between a quarter and a half above the control. Further doses and runs are listed elsewhere. T/C gives the treated animals as a percentage of the vehicle group. Some entries give survivors of the animals treated and no T/C: the source holds a T/C of zero for them, seemingly a mark for toxic or unscored doses. Some survivor counts are full or nearly so, which does not show that the dose was tolerated: survival well below the control is almost never listed, so the zero probably covers shortened survival too. Counts of survivors are from the toxicity check (mostly the fifth day) where no day follows; animals may have died later. Schedule codes are those of the source, taken here to give the interval after Q, in days (D) or hours (H), and the number of doses after X. Where survival is the endpoint, the PubChem record calls one and a half times the control and up active, and a quarter to a half above the control has no call in these data; cut-offs in other NCI protocols can differ. Some T/C values are followed by the survivors on the day toxicity was checked, most often the fifth; without a count, all were alive then.

Tested on: BDF1 mice, P388 leukemia ip, median survival T/C
Assay: NCI In Vivo Anticancer Drug Screen. Data for tumor model P388 Leukemia (intraperitoneal) in B6D2F1 (BDF1) mice
Conditions: T/C endpoint: median survival time, higher T/C = longer survival
Procedure, shortened: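 Reported as T/C, where T is the survival measurement in dosed animals and C the same measurement in vehicle controls.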

[1] = dose: 100.0 mg/kg/injection, schedule: Q04DX003 (ip), vehicle: saline
[2] = dose: 200.0 mg/kg/injection, schedule: Q04DX003 (ip), vehicle: saline
[3] = dose: 400.0 mg/kg/injection, schedule: Q04DX003 (ip), vehicle: saline
[4] = dose: 400.0 mg/kg/injection, schedule: Q04DX003 (ip), vehicle: saline with Tween-80

O=P(NC1CCCC1)(N1CC1)N1CC1
T/C (dose: 3.13 mg/kg/injection, schedule: Q01DX009 (ip), vehicle: saline): 141 % of control | survivor count (dose: 25.0 mg/kg/injection, schedule: Q01DX009 (ip), vehicle: saline): 6 of 6 | survivor count [1]: 0 of 6 | survivor count [2]: 3 of 6 | survivor count [3]: 2 of 6

CCCCn1cnc2c(SC)nc(N)nc21
T/C (dose: 100.0 mg/kg/injection, schedule: Q01DX009 (ip), vehicle: Klucel (hydroxypropylcellulose) (HPC)): 125 % of control | survivor count (dose: 200.0 mg/kg/injection, schedule: Q01DX009 (ip), vehicle: Klucel (hydroxypropylcellulose) (HPC)): 3 of 6 | survivor count (dose: 400.0 mg/kg/injection, schedule: Q01DX009 (ip), vehicle: Klucel (hydroxypropylcellulose) (HPC)): 0 of 6

CC[N+](CC)(CC)CCCCCCCC[N+](CC)(CC)CC
survivor count (dose: 4.0 mg/kg/injection, schedule: Q01DX009 (ip), vehicle: water): 2 of 6 | survivor count (dose: 4.0 mg/kg/injection, schedule: Q04DX003 (ip), vehicle: water): 2 of 6 | survivor count (dose: 6.0 mg/kg/injection, schedule: Q01DX009 (ip), vehicle: water): 0 of 6 | survivor count (dose: 6.0 mg/kg/injection, schedule: Q04DX003 (ip), vehicle: water): 0 of 6

Cc1ncc([N+](=O)[O-])n1CCN=[N+]=[N-]
T/C [4]: 132 % of control

C=CC[Se]c1ncnc2c1c(C#N)cn2C1OC(CO)C(O)C1O (stereo unspecified)
survivor count [1]: 5 of 6 | survivor count [2]: 3 of 6 | survivor count [3]: 1 of 6

c1ccc(-c2oc3cc4c(cc3c2-c2ccc(OCCN3CCCC3)cc2)CCC4)cc1
survivor count (dose: 200.0 mg/kg/injection, schedule: Q04DX003 (ip), vehicle: saline with Tween-80): 6 of 6 | survivor count [4]: 4 of 6

O=C(N=Nc1c(O)[nH]c2ccccc12)C(=O)Nc1cccc(C(F)(F)F)c1
survivor count (dose: 100.0 mg/kg/injection, schedule: Q01DX009 (ip), vehicle: saline with Tween-80): 6 of 6 | survivor count (dose: 200.0 mg/kg/injection, schedule: Q01DX009 (ip), vehicle: saline with Tween-80): 6 of 6

CC1(C)N=C(N)N=C(N)N1c1ccc(CCc2ccc(S(=O)(=O)F)cc2)c(Cl)c1
T/C (dose: 25.0 mg/kg/injection, schedule: Q01DX009 (ip), vehicle: saline with Tween-80): 145 % of control | T/C (dose: 50.0 mg/kg/injection, schedule: Q01DX009 (ip), vehicle: saline with Tween-80): 145 % of control [5 of 6 alive] | T/C (dose: 50.0 mg/kg/injection, schedule: Q04DX003 (ip), vehicle: saline sonified): 136 % of control [5 of 6 alive] | T/C (dose: 75.0 mg/kg/injection, schedule: Q04DX003 (ip), vehicle: saline sonified): 145 % of control [4 of 6 alive]

CC12CCC3(CC1CCC(OC(=O)c1ccccc1)C2)OCCO3 (stereo unspecified)
T/C (dose: 100.0 mg/kg/injection, schedule: Q01DX009 (ip), vehicle: other): 136 % of control | T/C (dose: 100.0 mg/kg/injection, schedule: Q04DX003 (ip), vehicle: other): 145 % of control

O/C(=C/C(=S)S)c1ccco1
survivor count (dose: 100.0 mg/kg/injection, schedule: Q04DX003 (ip), vehicle: water): 6 of 6

Nc1ccc(N=Nc2ccccc2)c(N)n1
survivor count (dose: 200.0 mg/kg/injection, schedule: Q04DX003 (ip), vehicle: Klucel (hydroxypropylcellulose) (HPC)): 3 of 6

C=C(C)C(=O)O[C@H]1C[C@@]2(C)OC(=CC2=O)/C(CO)=C\[C@H]2OC(=O)C(=C)[C@H]12
survivor count (dose: 12.5 mg/kg/injection, schedule: Q01DX009 (ip), vehicle: Klucel (hydroxypropylcellulose) (HPC)): 6 of 6 | survivor count (dose: 25.0 mg/kg/injection, schedule: Q01DX009 (ip), vehicle: Klucel (hydroxypropylcellulose) (HPC)): 1 of 6 | survivor count (dose: 50.0 mg/kg/injection, schedule: Q01DX009 (ip), vehicle: Klucel (hydroxypropylcellulose) (HPC)): 0 of 6
